Assay results taken from PubChem BioAssay AID504834 (National Center for Advancing Translational Sciences (NCATS), 2011).
In all, about 320,000 compounds went through this assay and about 22,000 (6.9%) were called active. Inconclusive means that the source gave no clear call. Such entries were picked first, then a sample of the others. Calls come from the whole dose curve; as a rule, active = well fitted inhibition curve with a large enough effect; inconclusive = small, poorly fitted or top-dose-only effect, or another doubt; inactive = no such curve, though single readings can be large or run the other way. Where the call is inconclusive, the potency comes from a doubtful curve fit.

assay: Primary qHTS for delayed death inhibitors of the malarial parasite plastid, 96 hour incubation; details: P. falciparum luciferase reporter growth; series mostly up to 28.7 µM; activity change, negative = inhibition: at the top concentration
Summary of the method: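 Erythrocytes infected with luciferase-expressing P. falciparum were dispensed at 2% hematocrit and 0.05% parasitemia (final), then incubated with compounds 96 hours at 37 C in 5% CO2. Luminescence after detection reagent addition reported growth.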
% is set by controls: 0 for no effect and ±100 for the full control effect; potency is the fitted concentration of half-maximal effect.

| Compound | activity change, negative = inhibition | Potency |
| --- | --- | --- |
| CCOC(CCNC(=O)c1cc(-c2cccs2)nc2ccccc12)OCC | inactive: -8.08% |  |
| COc1ccccc1NC(=O)COc1ccc(/C=N/NC(=O)CSCc2cc(C)cc(C)c2)cc1 |  | inconclusive: 18.5 µM [inhibitor, single point] |
| Cc1ccc(OCCn2cncn2)c([N+](=O)[O-])c1 |  | inconclusive: 18.5 µM [inhibitor, single point] |
| COc1cccc(-n2nnc3c(=O)n(Cc4ccc(F)cc4)cnc32)c1 |  | inconclusive: 13.1 µM [inhibitor, single point] |
| CC1(C)CC(N2CCC(=O)N(C3CC(C)(C)NC(C)(C)C3)C2)CC(C)(C)N1 |  | inconclusive: 16.5 µM [inhibitor, single point] |
| Cc1cccc(OCCNC(=O)c2cccc(Oc3ccc(C(F)(F)F)cc3[N+](=O)[O-])c2)c1 |  | inconclusive: 4.15 µM [inhibitor, single point] |
| CC(=O)N1CCc2cc(S(=O)(=O)N3CCc4ccccc43)ccc21 |  | inconclusive: 29.4 µM [inhibitor, single point] |
| CCCSc1nc2cc(S(=O)(=O)N3CCOCC3)ccc2n1CC |  | inconclusive: 1.85 µM [inhibitor, partial curve] |
| COc1ccc(S(=O)(=O)O/N=C2\CCSc3ccc(C)cc32)cc1 |  | inconclusive: 5.22 µM [inhibitor, partial curve] |
| O=C(NCc1ccco1)/C(=C\c1ccco1)NC(=O)c1ccco1 | inactive: 48% |  |
| Nn1c(SCC(=O)NCCC2=CCCCC2)nnc1-c1cccnc1 | inactive: 0.918% |  |
| OC(CNCCc1ccc(Cl)cc1)COc1cc(Cl)ccc1Cl (centres undefined) |  | inconclusive: 10.4 µM [inhibitor, single point] |
| COc1cccc(C(=O)N(C)CC2CCN(CCc3cccc(C(F)(F)F)c3)CC2)c1 |  | inconclusive: 4.15 µM [inhibitor, single point] |
| O=C1Nc2ccc(F)cc2C12OCCO2 | inactive: -5.33% |  |
| O=C(CCSCCc1ccccn1)Nc1ccc(Br)cc1F | inactive: 15.4% |  |
| COc1ccccc1N1Cc2ccc(OC)c(OC)c2C1=O | inactive: 43.1% |  |
| COc1ccc(NC(=O)CN(C)C(=O)c2c(C)nn(Cc3ccc(C)cc3)c2Cl)cc1 |  | inconclusive: 18.5 µM [inhibitor, single point] |
| COc1cc(NC(=O)c2cc(Cl)ccc2Cl)ccc1-c1cc2ccccc2oc1=O |  | active: 11.7 µM |
| CCCCCCNC(=O)c1cc(S(=O)(=O)N2CCc3ccccc32)ccc1F |  | inconclusive: 5.22 µM [inhibitor, partial curve, poor fit] |
| CC(C(=O)Nc1ccc([N+](=O)[O-])cc1)N1CCN(C/C=C/c2ccccc2)CC1 (centres undefined) |  | inconclusive: 11.7 µM [inhibitor, single point] |
| CCOc1ccc(NC(=S)N(CCN2CCOCC2)Cc2cc3cc4c(cc3[nH]c2=O)OCCO4)cc1 |  | inconclusive: 18.5 µM [inhibitor, single point] |
| Cc1ccc(-c2nc3sc(C(N)=O)c(N)c3c3c2CCCC3)cc1 |  | inconclusive: 18.5 µM [inhibitor, single point] |

Look-ups from the list.
Potency with CCCCCCNC(=O)c1cc(S(=O)(=O)N2CCc3ccccc32)ccc1F reads inconclusive: 5.22 µM [inhibitor, partial curve, poor fit]
activity change, negative = inhibition with COc1ccccc1N1Cc2ccc(OC)c(OC)c2C1=O reads inactive: 43.1%
Potency with CCCSc1nc2cc(S(=O)(=O)N3CCOCC3)ccc2n1CC reads inconclusive: 1.85 µM [inhibitor, partial curve]

Next part.

| Compound | activity change, negative = inhibition | Potency |
| --- | --- | --- |
| CCCCOc1ccc(CCC(=O)N/N=C/c2ccco2)cc1 | inactive: -22.1% |  |
| CCNC(=O)CSc1nc2cc([N+](=O)[O-])ccc2n1-c1cccc(C(F)(F)F)c1 |  | inconclusive: 18.5 µM [inhibitor, single point] |
| CCC(=O)NC(c1ccc(N(C)C)cc1)c1c(O)ccc2ccccc12 (centres undefined) |  | inconclusive: 4.15 µM [inhibitor, single point] |
| O=C1C2C3CCC(CC3)C2C(=O)N1c1ccccc1 (centres undefined) | inactive: 0.99% |  |
| O=Cc1ccc(OCC(=O)Nc2ccccc2C(F)(F)F)cc1 | inactive: -0.515% |  |
| CC(=O)Nc1ccc(NC(=O)CN(c2ccc([N+](=O)[O-])cc2)S(=O)(=O)c2ccccc2)cc1 |  | active: 2.94 µM |
| CC(=O)N1c2ccc(S(=O)(=O)N3CCOCC3)cc2CC1C (centres undefined) |  | inconclusive: 18.5 µM [inhibitor, single point] |
| COc1ccc(S(=O)(=O)NCc2cc(=O)n(C)c(=O)n2C)cc1F | inactive: -1.42% |  |
| COc1cc(OC)nc(NC(=O)COC(=O)C2CCCCC2)n1 | inactive: 15.7% |  |
| COc1ccc(S(=O)(=O)NCC2CCCN(C(=O)c3occc3C)C2)cc1 (centres undefined) |  | inconclusive: 11.7 µM [inhibitor, single point] |
| CCn1c2ccccc2c2cc(NC(=O)CSc3nnc(-c4cccc(OC)c4)n3N)ccc21 |  | inconclusive: 18.5 µM [inhibitor, single point] |
| COc1ccc(NC(=O)CC2SC(=Nc3ccccc3)NC2=O)cc1 (centres undefined) |  | inconclusive: 6.57 µM [inhibitor, partial curve, poor fit] |
| Cc1ccccc1N(CC(=O)N/N=C/c1ccc(Cl)cc1)C(=O)c1ccccc1 |  | inconclusive: 16.5 µM [inhibitor, partial curve, poor fit] |
| Cc1nc(Sc2ccc(Br)cc2)c(C#N)c(C)c1[N+](=O)[O-] |  | active: 9.28 µM |
| O=C(CCCN1C(=O)/C(=C\c2cccs2)SC1=S)Nc1ccc(O)cc1C(=O)O |  | inconclusive: 20.8 µM [inhibitor, single point] |
| CCNC(=O)COc1ccc(OCc2ccccc2)cc1 | inactive: 1.97% |  |
| CCOCCCn1c(SC(C(=O)Nc2cc(C)ccc2C)c2ccccc2)nnc1-c1ccc(Cl)cc1 (centres undefined) |  | active: 9.28 µM |
| Cn1c(O)c(C=NC2CCCCCC2)c(=O)[nH]c1=S | inactive: -71.2% |  |
| COCCn1c(SCC(=O)NCCc2ccc(OC)c(OC)c2)nc2c([nH]c3ccccc32)c1=O |  | inconclusive: 2.62 µM [inhibitor, single point] |
| COc1ccc(C2Nc3ccccc3C(=O)N2c2ccc(Cl)cc2)cc1Cn1cc([N+](=O)[O-])cn1 (centres undefined) |  | inconclusive: 14.7 µM [inhibitor, partial curve, poor fit] |
| COc1cc(NC(=O)c2ccc(S(=O)(=O)N(C)C)cc2)cc(OC)c1OC |  | inconclusive: 18.5 µM [inhibitor, single point] |
| O=C(c1ccco1)N1CCN(C(=O)C2CCCN(S(=O)(=O)c3cccc4nsnc34)C2)CC1 (centres undefined) |  | inconclusive: 10.4 µM [inhibitor, partial curve] |
